Data: patent US20140186376A1, “Compositions and Methods for Inhibiting CCL3” (University of Rochester, priority 2012, published 2014)
At least one compound was matched to its structure with a doubt left.

Legend:
Assay type in all cases: in vivo
osteoclasts [1] = assay: Zoledronic acid treatment of normal mice: serum bone markers (ELISA) and micro-CT bone volumes
Procedure: The right hindlimb of each mouse was fixed in 10% Formalin for 48 hours, and then stored in 70% ethanol at 4° C. MicroCT analysis was performed as previously described (2009, Frisch et al., Blood 114:4054-4063).
All ELISAs were performed as indicated by the manufacturer's instructions. CTX measurements were performed using the RatLaps ELISA (AC-06F1, Immunodiagnostic Systems Inc.). TRACP 5b measurement was performed using Mouse TRAP ELISA (SB-TR103, Immunodiagnostic Systems Inc.). Osteocalcin measurement performed using the Mouse Osteocalcin EIA kit (BT-470, Biomedical Technologies). Bovine CTX from bone wafer culture media was measured using the Crosslaps® for Culture ELISA (AC-07F1, Immunodiagnostic Systems Inc.). Murine CCL3 protein measurement was performed using the Mouse CCL3/MIP-1 alpha Quantikine ELISA Kit (MMA00, R&D systems). Human CCL3 protein measurement was performed using the Human CCL3/MIP-1 alpha Quantikine ELISA Kit (DMA00, R&D systems).
Mice were given a 0.25 mg/kg intraperitoneal injection of zoledronic acid (ZA) bi-weekly for 2 weeks prior to induction of disease and throughout the course of the disease.

[2] = test system: leukemic-induced bone loss; assay: Zoledronic acid treatment of leukemic mice: micro-CT analysis of bone loss; details: for loss of trabecular bone volume: micro-CT (FIG. 6D); for cortical bone volume loss: micro-CT (FIG. 6E)
osteoclasts [3] = assay: Zoledronic acid treatment of leukemic mice: serum CTX (ELISA); details: leukemic mice treated with ZA (FIG. 6C)
bcCML leukemic cells = assay: Zoledronic acid treatment of leukemic mice: disease burden, LSC frequency (flow cytometry), progression

O=P(O)(O)C(O)(Cn1ccnc1)P(=O)(O)O [ZA, Zoledronic acid]
activity of osteoclasts (serum CTX, FIG. 6B) (osteoclasts [1]; mice after 2 weeks of ZA treatment, prior to transplantation with leukemic cells): sufficient to inhibit the activity of osteoclasts
bone volumes (trabecular and cortical BV/TV, FIG. 6D-6E) (osteoclasts [1]; wildtype (normal) mice, micro-CT): lack of significant ZA-dependent increases in bone volumes
loss of trabecular bone volume [2]: ameliorated
loss of trabecular bone volume ([2]; listed as zoledronic acid): rescues trabecular
cortical bone volume loss [2]: remained unchanged
cortical bone volume loss ([2]; listed as zoledronic acid): not cortical bone loss
trabecular number ([2]; micro-CT (FIG. 6F)): rescued
trabecular spacing ([2]; micro-CT (FIG. 6G)): rescued
serum CTX (osteoclasts [3]): dropped to subnormal levels
disease burden in marrow (bcCML cells as percent of total mononuclear cells) (bcCML leukemic cells; marrow (FIG. 8A)): mild decrease in disease burden in the marrow
frequency of LSC in marrow (bcCML leukemic cells; marrow (FIG. 8E)): did not result in measurable changes
disease burden in peripheral blood (bcCML leukemic cells; peripheral blood (FIG. 8C)): but not in spleen (FIG. 8B) or peripheral blood
disease burden in spleen (bcCML leukemic cells; spleen (FIG. 8B)): but not in spleen
frequency of LSC in spleen (bcCML leukemic cells; spleen (FIG. 8F)): did not result in measurable changes
